The target of the experiment is T1, HA-tagged Hipk (Drosophila homeodomain-interacting protein kinase) (Drosophila) (UniProt Q9W0Q1).
T1 sequence: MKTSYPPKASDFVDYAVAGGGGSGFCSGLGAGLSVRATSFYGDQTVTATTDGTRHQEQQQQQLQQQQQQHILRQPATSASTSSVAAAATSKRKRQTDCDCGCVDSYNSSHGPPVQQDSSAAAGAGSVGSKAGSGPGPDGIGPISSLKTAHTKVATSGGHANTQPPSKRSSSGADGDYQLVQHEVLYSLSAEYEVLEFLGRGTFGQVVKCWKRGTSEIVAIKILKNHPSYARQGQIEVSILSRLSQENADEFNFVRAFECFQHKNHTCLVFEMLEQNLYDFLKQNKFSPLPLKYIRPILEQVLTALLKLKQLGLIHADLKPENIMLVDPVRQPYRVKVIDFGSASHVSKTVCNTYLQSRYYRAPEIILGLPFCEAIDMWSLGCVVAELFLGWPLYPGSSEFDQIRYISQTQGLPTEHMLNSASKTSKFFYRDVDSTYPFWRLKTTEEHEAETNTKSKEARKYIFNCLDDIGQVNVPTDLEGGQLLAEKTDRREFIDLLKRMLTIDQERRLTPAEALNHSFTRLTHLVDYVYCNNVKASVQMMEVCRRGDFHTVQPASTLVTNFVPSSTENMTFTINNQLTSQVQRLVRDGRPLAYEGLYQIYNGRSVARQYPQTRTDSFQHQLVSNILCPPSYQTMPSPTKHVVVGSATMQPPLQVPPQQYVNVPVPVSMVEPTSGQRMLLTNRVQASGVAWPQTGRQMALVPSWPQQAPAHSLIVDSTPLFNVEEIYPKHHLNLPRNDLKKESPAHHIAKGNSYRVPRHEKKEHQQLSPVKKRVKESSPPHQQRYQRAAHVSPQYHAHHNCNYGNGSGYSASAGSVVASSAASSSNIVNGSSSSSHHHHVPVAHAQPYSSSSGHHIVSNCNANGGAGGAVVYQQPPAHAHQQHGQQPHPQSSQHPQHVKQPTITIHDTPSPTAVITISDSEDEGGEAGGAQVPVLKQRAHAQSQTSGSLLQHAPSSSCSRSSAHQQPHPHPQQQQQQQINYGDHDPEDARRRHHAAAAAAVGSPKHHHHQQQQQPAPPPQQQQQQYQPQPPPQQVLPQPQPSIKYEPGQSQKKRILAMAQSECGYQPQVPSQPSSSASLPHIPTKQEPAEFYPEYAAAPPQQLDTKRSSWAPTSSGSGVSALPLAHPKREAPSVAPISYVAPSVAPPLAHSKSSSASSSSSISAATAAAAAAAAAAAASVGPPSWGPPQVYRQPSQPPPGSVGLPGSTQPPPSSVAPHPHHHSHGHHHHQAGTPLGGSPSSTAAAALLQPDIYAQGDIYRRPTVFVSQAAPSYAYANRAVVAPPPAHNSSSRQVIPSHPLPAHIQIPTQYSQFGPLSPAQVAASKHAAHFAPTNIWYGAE
Briefly: co-IP; protein extracts of dpp-Gal4 larvae co-expressing HA-Hipk and a myc-tagged Sik; precipitated with anti-Hipk antibodies (control IgG), overnight at 4°C, protein A and protein G magnetic beads, washed with lysis buffer, Western blot.

Results are given in words; binding and its absence hold for the method and conditions named. Binding seen in cells or lysates may run through a third protein. Binding calls can cover weak binding; strength is not graded here. Where a sequence is shown, tags or fusion partners need not be part of it.

As for “myc-tagged wild-type Sik2 (Drosophila salt-inducible kinase 2) (from UniProt Q9W532) (enzyme)”, the binding entry is “binds”.

These data come from paper PMC10579798.
